{"source": "paper doi:10.1101/406181", "key": {"[1]": {"molecular_target": "PfGRP170-HA-BirA (P. falciparum)", "test": "proximity labelling"}, "[2]": {"molecular_target": "PfGRP170-GFP-DDD (P. falciparum)", "test": "affinity purification with mass spectrometry"}}, "note": "Results are given in words; binding and its absence hold for the method and conditions named. Binding seen in cells or lysates may run through a third protein. A yes stands for co-enrichment or nearness to the bait. Other partners may have been found."}
{"binder": "SERA6 (protein, UniProt Q9TY96 25-1031) NKVTVISHNNGHNDNLDVNKNGVISQENVFDTSESLNLPSNKKVGSDDLNTTTISFTVPDNLENEVKVVSSSESGKGATVSHTKVTSEGLSDTQPNVTQSVSSSTHTPGSLDSTMSTEQHSSVSQSSLPTESSSETLNKATVPEIPIQINSGLLKNYNGVKVTGSCGSYFRVYLVPHILIYALTKYSVIQLESLFNDNARIDVEHKGELQNKCSEGYHFKLVVYITHNVLNLKWKTYKPNEESKSEDSDVRKYRIPKLERPFTSIQVYTANSKAGVIETKNYNIRTDIPDTCDAIATDCFLNGNVNIEKCFQCTLLVQKKDKSHECFKYVSSEMKKKMNEIKVKAQDDFNPNEYKLIESIDNILSKIYKKANKPFEISKDLINLEDLDYQFKNELLEYCKLLKKVDTSGTLEEYELGNAEDIYNNLTRLLKSHSDENIVTLQGKLRNTAICIKNVDEWILNKRGLTLPSESPSESSSKSDSYLNTFNDKDKNEDKDDMSKNSKEEFKNDDKENSDDQNNNDSNKKDDENNINNGDTNYVYDFDDDDYDNNSYEKDMYESPIKENKNGVIDLEKYGNQIKLKSPYFKNSKYCNYEYCNRWRDKTSCISQIEVEEQGNCGLCWIFASKLHFETIRCMRGYGHFRSSALYVANCSKRKPIDRCEEGSNPLEFLRILDEKKFLPLESNYPYSYTSAGNSCPKLPNSWTNLWGDTKLLFNKKVHRYIGNKGFISHETSYFKNNMDLFIDMVKREVQNKGSVIIYIKTQDVIGYDFNGKGVHSMCGDRTPDHAANIIGYGNYINKKGEKRSYWLIRNSWSYYWGDEGNFRVDMLGPKNCLYNFIHTVVFFKLDLGTIHVPKKKSWKKNVYFLRHNPDFMYSLYYNNYEPETSQDFESENDYDNAFVHGQSNESDETNKEGKNVHNSVEKKIQILHILKHIKDSQIKRGLVKYDNINETKDEHTCSRVNSQDAEKYEECKKFCLTKWNECKDHYSPGYCLTDLYKGEDCNFCYV", "values": [{"measurement": "binding", "setting": "[1]", "result": "binds"}, {"measurement": "binding", "setting": "[2]", "result": "binds"}]}
